Laboratory results from article PMC11605454.
Results are given in words; binding and its absence hold for the method and conditions named. Binding seen in cells or lysates may run through a third protein. Some results given as binding are weak or reduced against the parent protein; the word gives no strength.

By UniProt entry, the sequences of proteins in these tests, tags left out. Where a name states a change or a piece, a line headed by the entry shows the natural chain unless it says otherwise.
UniProt Q6ZPK0: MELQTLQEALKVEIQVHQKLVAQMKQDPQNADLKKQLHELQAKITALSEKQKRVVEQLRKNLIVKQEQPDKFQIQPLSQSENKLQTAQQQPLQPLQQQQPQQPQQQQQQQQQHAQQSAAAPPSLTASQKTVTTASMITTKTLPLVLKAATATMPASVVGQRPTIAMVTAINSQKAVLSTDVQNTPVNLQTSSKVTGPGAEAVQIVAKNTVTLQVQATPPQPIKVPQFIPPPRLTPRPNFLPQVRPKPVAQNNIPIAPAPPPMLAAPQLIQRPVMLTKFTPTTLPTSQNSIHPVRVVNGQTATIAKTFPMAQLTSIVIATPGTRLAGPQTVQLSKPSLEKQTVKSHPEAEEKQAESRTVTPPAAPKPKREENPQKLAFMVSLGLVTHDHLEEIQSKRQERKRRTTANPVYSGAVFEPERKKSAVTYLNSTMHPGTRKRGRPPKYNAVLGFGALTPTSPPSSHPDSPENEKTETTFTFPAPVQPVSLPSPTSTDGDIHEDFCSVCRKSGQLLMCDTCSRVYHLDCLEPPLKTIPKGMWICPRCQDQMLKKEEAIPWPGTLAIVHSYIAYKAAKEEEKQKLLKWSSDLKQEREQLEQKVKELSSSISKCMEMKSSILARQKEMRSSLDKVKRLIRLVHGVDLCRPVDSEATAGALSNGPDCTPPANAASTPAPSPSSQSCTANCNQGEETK

Target: PHF21A canonical isoform (PHF21A-c), mouse (mouse (endogenous in MEF and in Phf21a Δn/Δn cortex)) (UniProt Q6ZPK0)
Assay: co-IP; anti-PHF21A antibody crosslinked to Protein A/G beads, control rabbit IgG; nuclear extracts (0.6 M KCl extraction) of LUHMES cells (day 0, day 3), 293T cells, MEFs, cortical neurons (DIV7) or P0 mouse cortices; 3 h at 4 °C; Western blot

binding: binds
B1: HMG20B (BRAF35), mouse (protein, UniProt Q9Z104 1-317)
chain: MSHGPRQPGAATAPAGGKTPGQHGAFVVAVKQERSEGSRAGEKGPQEEEPVKKRGWPKGKKRKKILPNGPKAPVTGYVRFLNERREQIRTRHPDLPFPEITKMLGAEWSKLQPAEKQRYLDEAEKEKQQYLKELWAYQQSEAYKVCTEKIQENKIKKEDSSSGLMNTLLNGHKGVDCDGFSTFDVPIFTEEFLDQNKAREAELRRLRKMNVAFEEQNAVLQRHTQSMSSARERLEQELALEERRTLALQQQLQAVRQALTASFASLPVPGTGETPTLGTLDFYMARLHGAIERDPAQHERLIARVKEILARVASEHL
